Results are given in words; binding and its absence hold for the method and conditions named. Binding seen in cells or lysates may run through a third protein. Some results given as binding are weak or reduced against the parent protein; the word gives no strength.
T1: ANKS3 (endogenous, mouse kidney) (mouse (endogenous in kidney)) (UniProt Q9CZK6)
T1 sequence: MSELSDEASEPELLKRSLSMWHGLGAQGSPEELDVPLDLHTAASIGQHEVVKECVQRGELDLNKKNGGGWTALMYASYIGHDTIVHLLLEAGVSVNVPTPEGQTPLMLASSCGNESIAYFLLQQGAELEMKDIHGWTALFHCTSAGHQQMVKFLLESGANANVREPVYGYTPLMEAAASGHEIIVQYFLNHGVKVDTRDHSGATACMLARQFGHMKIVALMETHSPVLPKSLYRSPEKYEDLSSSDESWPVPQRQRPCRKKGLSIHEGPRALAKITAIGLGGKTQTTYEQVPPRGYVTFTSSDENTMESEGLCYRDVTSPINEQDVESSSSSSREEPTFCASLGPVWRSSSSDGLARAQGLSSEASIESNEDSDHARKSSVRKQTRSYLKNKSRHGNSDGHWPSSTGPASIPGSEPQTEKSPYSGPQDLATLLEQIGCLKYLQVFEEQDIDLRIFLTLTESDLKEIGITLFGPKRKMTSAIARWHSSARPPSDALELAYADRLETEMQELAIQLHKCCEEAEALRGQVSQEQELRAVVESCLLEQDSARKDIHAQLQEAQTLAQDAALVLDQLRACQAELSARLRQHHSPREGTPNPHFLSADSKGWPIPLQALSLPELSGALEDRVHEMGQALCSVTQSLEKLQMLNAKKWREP

T2: ANKS6 (endogenous, mouse kidney) (mouse (endogenous in kidney)) (UniProt Q6GQX6)
T2 sequence: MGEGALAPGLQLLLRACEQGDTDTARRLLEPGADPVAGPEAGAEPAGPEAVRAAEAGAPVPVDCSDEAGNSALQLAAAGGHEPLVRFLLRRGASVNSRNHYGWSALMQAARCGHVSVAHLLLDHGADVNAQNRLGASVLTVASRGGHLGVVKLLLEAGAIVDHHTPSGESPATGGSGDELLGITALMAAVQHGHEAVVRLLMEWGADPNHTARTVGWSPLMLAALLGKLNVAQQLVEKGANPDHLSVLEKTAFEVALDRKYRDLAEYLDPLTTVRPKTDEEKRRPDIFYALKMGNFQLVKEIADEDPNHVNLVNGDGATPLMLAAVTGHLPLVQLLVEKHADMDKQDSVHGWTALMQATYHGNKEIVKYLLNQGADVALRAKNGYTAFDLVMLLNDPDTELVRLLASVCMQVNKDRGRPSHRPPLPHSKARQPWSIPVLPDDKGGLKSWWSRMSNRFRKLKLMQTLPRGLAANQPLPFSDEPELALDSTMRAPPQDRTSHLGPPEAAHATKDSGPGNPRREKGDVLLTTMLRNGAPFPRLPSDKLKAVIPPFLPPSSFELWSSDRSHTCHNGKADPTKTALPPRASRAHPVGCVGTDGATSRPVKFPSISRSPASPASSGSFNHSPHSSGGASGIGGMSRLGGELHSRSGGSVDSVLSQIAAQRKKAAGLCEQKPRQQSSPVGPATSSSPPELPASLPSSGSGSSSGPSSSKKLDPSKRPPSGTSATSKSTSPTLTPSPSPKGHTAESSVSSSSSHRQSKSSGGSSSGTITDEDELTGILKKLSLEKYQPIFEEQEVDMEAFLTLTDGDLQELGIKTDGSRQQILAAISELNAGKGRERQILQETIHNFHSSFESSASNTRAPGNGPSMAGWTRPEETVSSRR


What was measured:
[1] = biological target: T1, ANKS3 (endogenous, mouse kidney) (mouse (endogenous in kidney)); assay: co-IP; 750 ug of kidney protein extracts with anti-Anks3 or anti-Anks6 antibody or control IgGs overnight at 4°C; Protein A or G microbeads, MAC ucolumns; Western blot
[2] = biological target: T2, ANKS6 (endogenous, mouse kidney) (mouse (endogenous in kidney)); assay: as above

binding [1] | binding [2] | Binder
binds | – | ANKS6 (endogenous, mouse kidney) (protein, UniProt Q6GQX6 1-883) MGEGALAPGLQLLLRACEQGDTDTARRLLEPGADPVAGPEAGAEPAGPEAVRAAEAGAPVPVDCSDEAGNSALQLAAAGGHEPLVRFLLRRGASVNSRNHYGWSALMQAARCGHVSVAHLLLDHGADVNAQNRLGASVLTVASRGGHLGVVKLLLEAGAIVDHHTPSGESPATGGSGDELLGITALMAAVQHGHEAVVRLLMEWGADPNHTARTVGWSPLMLAALLGKLNVAQQLVEKGANPDHLSVLEKTAFEVALDRKYRDLAEYLDPLTTVRPKTDEEKRRPDIFYALKMGNFQLVKEIADEDPNHVNLVNGDGATPLMLAAVTGHLPLVQLLVEKHADMDKQDSVHGWTALMQATYHGNKEIVKYLLNQGADVALRAKNGYTAFDLVMLLNDPDTELVRLLASVCMQVNKDRGRPSHRPPLPHSKARQPWSIPVLPDDKGGLKSWWSRMSNRFRKLKLMQTLPRGLAANQPLPFSDEPELALDSTMRAPPQDRTSHLGPPEAAHATKDSGPGNPRREKGDVLLTTMLRNGAPFPRLPSDKLKAVIPPFLPPSSFELWSSDRSHTCHNGKADPTKTALPPRASRAHPVGCVGTDGATSRPVKFPSISRSPASPASSGSFNHSPHSSGGASGIGGMSRLGGELHSRSGGSVDSVLSQIAAQRKKAAGLCEQKPRQQSSPVGPATSSSPPELPASLPSSGSGSSSGPSSSKKLDPSKRPPSGTSATSKSTSPTLTPSPSPKGHTAESSVSSSSSHRQSKSSGGSSSGTITDEDELTGILKKLSLEKYQPIFEEQEVDMEAFLTLTDGDLQELGIKTDGSRQQILAAISELNAGKGRERQILQETIHNFHSSFESSASNTRAPGNGPSMAGWTRPEETVSSRR
– | binds | ANKS3 (endogenous, mouse kidney) (protein, UniProt Q9CZK6 1-655) MSELSDEASEPELLKRSLSMWHGLGAQGSPEELDVPLDLHTAASIGQHEVVKECVQRGELDLNKKNGGGWTALMYASYIGHDTIVHLLLEAGVSVNVPTPEGQTPLMLASSCGNESIAYFLLQQGAELEMKDIHGWTALFHCTSAGHQQMVKFLLESGANANVREPVYGYTPLMEAAASGHEIIVQYFLNHGVKVDTRDHSGATACMLARQFGHMKIVALMETHSPVLPKSLYRSPEKYEDLSSSDESWPVPQRQRPCRKKGLSIHEGPRALAKITAIGLGGKTQTTYEQVPPRGYVTFTSSDENTMESEGLCYRDVTSPINEQDVESSSSSSREEPTFCASLGPVWRSSSSDGLARAQGLSSEASIESNEDSDHARKSSVRKQTRSYLKNKSRHGNSDGHWPSSTGPASIPGSEPQTEKSPYSGPQDLATLLEQIGCLKYLQVFEEQDIDLRIFLTLTESDLKEIGITLFGPKRKMTSAIARWHSSARPPSDALELAYADRLETEMQELAIQLHKCCEEAEALRGQVSQEQELRAVVESCLLEQDSARKDIHAQLQEAQTLAQDAALVLDQLRACQAELSARLRQHHSPREGTPNPHFLSADSKGWPIPLQALSLPELSGALEDRVHEMGQALCSVTQSLEKLQMLNAKKWREP

From paper PMC4556665
